Data published in the supplement of paper PMC6411743.
± gives the standard deviation of the averaged measurements. This is a selection; strong and weak results do not stand in their true shares.

Amino acid sequences for entries named in this document (tags omitted). A change or cut given only in a name is not applied to a line headed by its entry.
UniProt P78347: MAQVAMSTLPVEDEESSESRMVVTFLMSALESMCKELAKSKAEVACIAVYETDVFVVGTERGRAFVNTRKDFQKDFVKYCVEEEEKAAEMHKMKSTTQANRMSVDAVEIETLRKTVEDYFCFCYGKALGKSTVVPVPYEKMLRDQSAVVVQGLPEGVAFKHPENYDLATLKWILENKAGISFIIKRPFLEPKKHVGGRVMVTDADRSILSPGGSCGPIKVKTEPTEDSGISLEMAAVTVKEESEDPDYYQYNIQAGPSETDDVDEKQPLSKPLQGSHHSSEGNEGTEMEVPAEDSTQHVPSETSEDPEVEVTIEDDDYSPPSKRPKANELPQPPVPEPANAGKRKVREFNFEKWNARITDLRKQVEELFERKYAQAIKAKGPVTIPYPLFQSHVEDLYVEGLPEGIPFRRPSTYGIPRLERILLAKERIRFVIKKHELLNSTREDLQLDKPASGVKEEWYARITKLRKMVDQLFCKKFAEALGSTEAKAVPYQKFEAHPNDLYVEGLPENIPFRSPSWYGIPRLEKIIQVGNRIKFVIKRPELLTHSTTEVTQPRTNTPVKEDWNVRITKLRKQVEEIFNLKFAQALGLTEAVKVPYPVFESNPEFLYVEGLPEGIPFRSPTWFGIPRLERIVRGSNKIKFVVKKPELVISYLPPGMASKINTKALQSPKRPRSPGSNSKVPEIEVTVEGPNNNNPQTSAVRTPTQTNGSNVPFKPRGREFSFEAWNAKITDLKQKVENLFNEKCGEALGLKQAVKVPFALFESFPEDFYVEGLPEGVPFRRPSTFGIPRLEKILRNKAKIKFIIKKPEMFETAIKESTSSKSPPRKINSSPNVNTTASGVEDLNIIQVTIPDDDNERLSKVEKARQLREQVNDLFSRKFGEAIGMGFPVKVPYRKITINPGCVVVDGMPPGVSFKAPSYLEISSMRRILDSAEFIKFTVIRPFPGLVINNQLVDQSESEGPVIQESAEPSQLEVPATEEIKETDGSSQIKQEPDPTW
UniProt P62256: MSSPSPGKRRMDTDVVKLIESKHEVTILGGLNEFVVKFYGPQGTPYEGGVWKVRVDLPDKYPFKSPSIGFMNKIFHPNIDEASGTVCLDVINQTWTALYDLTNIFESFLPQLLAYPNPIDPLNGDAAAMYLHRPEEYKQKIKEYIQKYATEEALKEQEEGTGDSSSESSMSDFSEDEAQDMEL
UniProt Q04837: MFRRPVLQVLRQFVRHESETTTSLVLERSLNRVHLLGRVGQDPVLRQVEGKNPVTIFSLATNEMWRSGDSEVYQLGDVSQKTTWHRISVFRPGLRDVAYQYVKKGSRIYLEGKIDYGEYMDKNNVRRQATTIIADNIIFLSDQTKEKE
UniProt P56159: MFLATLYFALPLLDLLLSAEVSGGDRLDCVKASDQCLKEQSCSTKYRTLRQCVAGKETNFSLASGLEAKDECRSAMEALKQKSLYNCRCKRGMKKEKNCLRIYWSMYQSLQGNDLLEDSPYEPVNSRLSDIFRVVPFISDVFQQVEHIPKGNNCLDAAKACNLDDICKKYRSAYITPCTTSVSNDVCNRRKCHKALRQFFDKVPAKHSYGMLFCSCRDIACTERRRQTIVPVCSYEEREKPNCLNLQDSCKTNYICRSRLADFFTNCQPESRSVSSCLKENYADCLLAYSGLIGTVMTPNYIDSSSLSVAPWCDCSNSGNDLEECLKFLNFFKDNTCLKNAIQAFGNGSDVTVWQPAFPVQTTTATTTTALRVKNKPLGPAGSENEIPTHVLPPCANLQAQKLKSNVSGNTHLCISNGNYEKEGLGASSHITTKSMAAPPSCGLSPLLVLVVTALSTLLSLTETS
UniProt P62820, whole entry: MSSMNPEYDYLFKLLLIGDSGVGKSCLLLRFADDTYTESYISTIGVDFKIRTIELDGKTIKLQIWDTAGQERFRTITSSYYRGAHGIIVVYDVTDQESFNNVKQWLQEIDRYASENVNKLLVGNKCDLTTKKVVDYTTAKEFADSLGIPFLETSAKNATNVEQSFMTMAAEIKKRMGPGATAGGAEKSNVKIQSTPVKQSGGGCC
UniProt Q00722, whole entry: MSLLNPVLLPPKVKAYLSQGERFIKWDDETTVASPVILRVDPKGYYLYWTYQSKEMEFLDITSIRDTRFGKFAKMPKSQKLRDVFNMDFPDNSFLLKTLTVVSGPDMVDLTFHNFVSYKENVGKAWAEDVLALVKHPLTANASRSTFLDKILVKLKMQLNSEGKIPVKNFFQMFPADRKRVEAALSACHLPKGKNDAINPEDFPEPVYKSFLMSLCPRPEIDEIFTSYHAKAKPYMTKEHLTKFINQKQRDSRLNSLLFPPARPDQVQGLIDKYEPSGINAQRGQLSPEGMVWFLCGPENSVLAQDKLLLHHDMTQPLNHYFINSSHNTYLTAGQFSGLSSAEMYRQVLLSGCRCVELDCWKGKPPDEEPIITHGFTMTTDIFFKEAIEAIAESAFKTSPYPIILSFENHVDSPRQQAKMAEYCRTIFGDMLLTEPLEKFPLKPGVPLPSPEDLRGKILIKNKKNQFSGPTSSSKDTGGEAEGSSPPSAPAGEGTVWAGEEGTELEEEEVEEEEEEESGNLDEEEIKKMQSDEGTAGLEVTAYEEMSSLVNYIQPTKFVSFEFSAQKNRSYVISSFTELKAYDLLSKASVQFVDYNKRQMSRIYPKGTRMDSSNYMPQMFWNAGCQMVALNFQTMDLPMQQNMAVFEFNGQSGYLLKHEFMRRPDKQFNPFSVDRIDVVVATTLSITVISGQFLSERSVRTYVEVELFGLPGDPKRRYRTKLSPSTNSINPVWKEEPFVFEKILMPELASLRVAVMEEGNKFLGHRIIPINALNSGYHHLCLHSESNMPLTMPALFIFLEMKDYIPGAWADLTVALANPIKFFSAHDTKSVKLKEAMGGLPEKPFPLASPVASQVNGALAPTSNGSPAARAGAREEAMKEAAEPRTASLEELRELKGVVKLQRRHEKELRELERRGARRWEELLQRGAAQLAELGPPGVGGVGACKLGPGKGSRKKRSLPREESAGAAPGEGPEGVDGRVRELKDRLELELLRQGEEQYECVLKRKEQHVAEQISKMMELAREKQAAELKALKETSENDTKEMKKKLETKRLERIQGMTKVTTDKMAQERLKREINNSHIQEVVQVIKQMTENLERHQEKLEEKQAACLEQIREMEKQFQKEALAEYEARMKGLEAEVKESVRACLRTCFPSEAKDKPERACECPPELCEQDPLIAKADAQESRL
UniProt P98095: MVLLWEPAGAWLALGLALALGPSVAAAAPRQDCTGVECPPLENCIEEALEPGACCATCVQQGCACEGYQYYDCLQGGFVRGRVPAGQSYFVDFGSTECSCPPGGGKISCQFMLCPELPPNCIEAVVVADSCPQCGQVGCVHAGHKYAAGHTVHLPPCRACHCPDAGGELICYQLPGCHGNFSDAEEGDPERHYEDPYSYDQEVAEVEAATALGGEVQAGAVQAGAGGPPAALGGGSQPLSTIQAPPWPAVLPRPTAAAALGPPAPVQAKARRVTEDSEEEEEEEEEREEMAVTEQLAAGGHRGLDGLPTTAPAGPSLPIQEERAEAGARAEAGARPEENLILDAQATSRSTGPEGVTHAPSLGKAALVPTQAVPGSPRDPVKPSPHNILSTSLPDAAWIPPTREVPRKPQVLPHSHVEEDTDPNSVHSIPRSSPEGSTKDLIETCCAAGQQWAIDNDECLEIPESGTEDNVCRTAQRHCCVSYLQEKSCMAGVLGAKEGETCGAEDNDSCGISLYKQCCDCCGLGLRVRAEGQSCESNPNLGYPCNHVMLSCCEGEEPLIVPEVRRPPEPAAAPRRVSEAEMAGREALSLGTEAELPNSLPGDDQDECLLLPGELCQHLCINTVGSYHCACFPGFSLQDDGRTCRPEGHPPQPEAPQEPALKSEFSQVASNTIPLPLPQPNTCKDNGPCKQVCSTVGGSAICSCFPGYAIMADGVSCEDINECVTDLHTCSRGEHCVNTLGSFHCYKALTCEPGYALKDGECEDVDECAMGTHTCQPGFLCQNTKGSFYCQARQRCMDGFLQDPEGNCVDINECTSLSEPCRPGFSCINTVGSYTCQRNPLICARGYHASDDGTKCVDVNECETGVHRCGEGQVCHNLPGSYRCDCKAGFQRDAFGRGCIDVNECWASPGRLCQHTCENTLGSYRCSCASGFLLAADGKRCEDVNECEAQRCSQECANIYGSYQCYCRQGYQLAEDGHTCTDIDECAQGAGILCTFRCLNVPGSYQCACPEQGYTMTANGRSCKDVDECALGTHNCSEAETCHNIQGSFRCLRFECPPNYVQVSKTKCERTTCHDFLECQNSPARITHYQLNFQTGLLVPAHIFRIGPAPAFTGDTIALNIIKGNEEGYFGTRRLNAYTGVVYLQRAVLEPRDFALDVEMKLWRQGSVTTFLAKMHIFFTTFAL
UniProt P78371: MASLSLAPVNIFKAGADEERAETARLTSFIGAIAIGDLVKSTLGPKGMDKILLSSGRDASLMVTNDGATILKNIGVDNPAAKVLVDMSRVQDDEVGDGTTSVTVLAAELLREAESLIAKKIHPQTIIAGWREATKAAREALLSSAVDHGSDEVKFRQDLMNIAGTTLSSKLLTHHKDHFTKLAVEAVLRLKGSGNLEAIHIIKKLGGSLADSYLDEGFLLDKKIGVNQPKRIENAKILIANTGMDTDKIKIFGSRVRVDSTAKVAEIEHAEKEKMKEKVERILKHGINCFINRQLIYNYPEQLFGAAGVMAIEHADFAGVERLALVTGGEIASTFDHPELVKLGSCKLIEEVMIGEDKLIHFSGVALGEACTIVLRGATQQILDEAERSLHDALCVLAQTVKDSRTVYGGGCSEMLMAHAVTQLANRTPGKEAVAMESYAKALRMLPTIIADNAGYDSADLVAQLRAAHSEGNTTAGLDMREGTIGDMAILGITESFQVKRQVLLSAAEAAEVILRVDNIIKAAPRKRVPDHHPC
UniProt P98170, whole entry: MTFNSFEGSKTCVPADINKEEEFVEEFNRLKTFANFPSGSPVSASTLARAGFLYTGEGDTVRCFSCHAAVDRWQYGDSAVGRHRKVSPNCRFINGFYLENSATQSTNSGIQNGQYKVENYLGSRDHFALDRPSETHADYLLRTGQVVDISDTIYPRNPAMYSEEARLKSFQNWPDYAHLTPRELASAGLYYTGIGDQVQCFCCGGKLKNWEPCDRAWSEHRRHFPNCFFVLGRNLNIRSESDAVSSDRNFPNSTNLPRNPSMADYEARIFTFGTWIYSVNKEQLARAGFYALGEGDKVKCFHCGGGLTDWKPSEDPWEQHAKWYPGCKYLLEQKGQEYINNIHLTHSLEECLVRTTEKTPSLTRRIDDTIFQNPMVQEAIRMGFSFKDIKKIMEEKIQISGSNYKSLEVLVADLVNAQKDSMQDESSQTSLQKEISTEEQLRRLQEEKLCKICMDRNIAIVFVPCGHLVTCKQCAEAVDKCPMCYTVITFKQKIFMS
UniProt Q06546: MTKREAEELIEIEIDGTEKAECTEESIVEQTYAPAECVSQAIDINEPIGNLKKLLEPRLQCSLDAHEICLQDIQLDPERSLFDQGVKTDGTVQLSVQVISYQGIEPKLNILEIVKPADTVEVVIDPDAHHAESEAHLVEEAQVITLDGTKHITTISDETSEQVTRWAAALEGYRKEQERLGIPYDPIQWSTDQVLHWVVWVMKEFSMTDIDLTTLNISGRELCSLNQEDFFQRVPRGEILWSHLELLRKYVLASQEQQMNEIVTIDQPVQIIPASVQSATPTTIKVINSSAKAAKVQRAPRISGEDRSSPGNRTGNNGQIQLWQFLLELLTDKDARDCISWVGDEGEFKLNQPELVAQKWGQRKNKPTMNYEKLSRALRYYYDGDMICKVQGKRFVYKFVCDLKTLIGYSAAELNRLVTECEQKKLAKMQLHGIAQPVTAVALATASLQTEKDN
UniProt Q05655: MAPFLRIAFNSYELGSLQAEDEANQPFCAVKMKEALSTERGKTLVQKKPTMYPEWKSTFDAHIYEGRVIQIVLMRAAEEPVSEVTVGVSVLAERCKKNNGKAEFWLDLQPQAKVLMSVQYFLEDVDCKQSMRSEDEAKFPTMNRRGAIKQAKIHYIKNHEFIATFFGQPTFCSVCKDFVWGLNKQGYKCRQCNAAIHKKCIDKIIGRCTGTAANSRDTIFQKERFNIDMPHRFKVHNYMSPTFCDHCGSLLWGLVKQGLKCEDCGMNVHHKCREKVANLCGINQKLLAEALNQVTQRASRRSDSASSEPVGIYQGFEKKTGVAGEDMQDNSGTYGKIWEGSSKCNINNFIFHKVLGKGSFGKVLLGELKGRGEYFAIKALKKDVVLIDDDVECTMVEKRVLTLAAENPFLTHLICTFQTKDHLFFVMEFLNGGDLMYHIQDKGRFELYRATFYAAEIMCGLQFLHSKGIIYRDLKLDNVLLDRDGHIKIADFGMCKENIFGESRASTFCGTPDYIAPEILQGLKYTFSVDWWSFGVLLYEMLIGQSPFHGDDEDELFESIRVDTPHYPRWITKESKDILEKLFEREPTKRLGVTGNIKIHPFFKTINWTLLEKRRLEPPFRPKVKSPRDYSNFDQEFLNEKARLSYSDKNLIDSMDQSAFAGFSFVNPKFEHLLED

compound: Nc1ncnc2c1ncn2[C@@H]1O[C@H](COP(=O)(O)OP(=O)(O)NP(=O)(O)O)[C@@H](O)[C@H]1O [adenylyl imidodiphosphate]; assay: NP40-soluble protein abundance relative to vehicle (solubility fold change) (ratio); higher = more soluble protein in presence of AMP-PNP; conditions: concentration: 4mM
Procedure, shortened: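 Each value is a fold change relative to the detergent-processed vehicle, calculated per replicate from vsn-normalised intensities. Jurkat crude lysate received eight concentrations (0.1 to 10 mM) for 10 min at room temperature and 3 min at 37 °C, then was solubilised in 0.8% NP40 with benzonase (60 min, 4 °C). The ultracentrifuged supernatant was TMT-labelled and run by LC-MS/MS in three independent experiments.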

Row | Target | NP40-soluble protein abundance
1 | UniProt P63167 | 0.958 ± 0.044
2 | UniProt P78347 and related entries | 1.06 ± 0.029
3 | UniProt P62273 | 0.96 ± 0.075
4 | SRP54 (UniProt P61011) | 1.03 ± 0.03
5 | UniProt P62256 | 1.01 ± 0.015
6 | SSBP1 (UniProt Q04837) | 0.942 ± 0.088
7 | TFAP4 (UniProt Q01664) | 0.972 ± 0.017
8 | UniProt Q06136 and related entries | 0.995 ± 0.062
9 | MRPS35 (UniProt P82673) | 0.918 ± 0.079
10 | HMGCS1 (UniProt Q01581) | 0.954 ± 0.027
11 | UniProt P62750 | 0.913 ± 0.052
12 | UniProt Q06787 and related entries | 1.1 ± 0.02
13 | UniProt P56159 and related entries | 0.982 ± 0.037
14 | UniProt P62820 | 0.97 ± 0.072
15 | UniProt P62829 | 0.9382 ± 0.003
16 | UniProt Q01085-2 | 0.992 ± 0.029
17 | UniProt Q05932 and related entries | 1 ± 0.03
18 | UniProt Q00722 and related entries | 1.04 ± 0.038
19 | UniProt P98095 and related entries | 1.03 ± 0.015
20 | CCT2 (UniProt P78371) | 0.909 ± 0.081
21 | XIAP (UniProt P98170) | 1.02 ± 0.057
22 | FOXK2 (UniProt Q01167) | 0.999 ± 0.063
23 | GABPA (UniProt Q06546) | 0.95 ± 0.013
24 | UniProt Q05655 | 1.02 ± 0.013
25 | UniProt P60604 and related entries | 1.02 ± 0.068
26 | UniProt Q03188 and related entries | 1.03 ± 0.025
27 | SOX4 (UniProt Q06945) | 1.04 ± 0.017
28 | UniProt P62753 | 0.925 ± 0.11
29 | UniProt P61225 | 0.914 ± 0.021
30 | EIF6 (UniProt P56537) | 1.03 ± 0.015

Exported as a markdown table: part of the list above.

| Row | Target | NP40-soluble protein abundance |
| --- | --- | --- |
| 20 | CCT2 (UniProt P78371) | 0.909 ± 0.081 |
| 21 | XIAP (UniProt P98170) | 1.02 ± 0.057 |
